# Measurements published in publication PMC4714197, “The Tomato Nucleotide-binding Leucine-rich Repeat Immune Receptor I-2 Couples DNA-binding to Nucleotide-binding Domain Nucleotide Exchange” (The Journal of Biological Chemistry, 2015).
# Positions count from the first letter of the chain named. Tags and fusion partners may be left off the protein sequences shown. For at least one entry, the source does not settle the construct or the ends of the probe. For part of these data: The comparison behind a weaker result is the experiment's own reference, which may not be listed here. For part of these data: At least one verdict was read from the data and is not stated in words by the source. For part of these data: The direction of at least one scale is not stated here.
# How the values were obtained:
# [1] = biological target: T1, I-2 CC-NB-ARC K207R (Solanum lycopersicum (tomato)) (UniProt Q9XET3); experiment: EMSA; conditions: 10 mM ZnCl2 (so in the source), same effect as WT, EMSA: 20 mM Tris-HCl pH 8.0, 60 mM NaCl, 2 mM EDTA, 1 mM DTT, 10% glycerol, 0.1 mg/ml BSA, 0.15 nM nucleic acid, recombinant protein, residues 1-519, label: 32P end label
# T1 sequence (looked up): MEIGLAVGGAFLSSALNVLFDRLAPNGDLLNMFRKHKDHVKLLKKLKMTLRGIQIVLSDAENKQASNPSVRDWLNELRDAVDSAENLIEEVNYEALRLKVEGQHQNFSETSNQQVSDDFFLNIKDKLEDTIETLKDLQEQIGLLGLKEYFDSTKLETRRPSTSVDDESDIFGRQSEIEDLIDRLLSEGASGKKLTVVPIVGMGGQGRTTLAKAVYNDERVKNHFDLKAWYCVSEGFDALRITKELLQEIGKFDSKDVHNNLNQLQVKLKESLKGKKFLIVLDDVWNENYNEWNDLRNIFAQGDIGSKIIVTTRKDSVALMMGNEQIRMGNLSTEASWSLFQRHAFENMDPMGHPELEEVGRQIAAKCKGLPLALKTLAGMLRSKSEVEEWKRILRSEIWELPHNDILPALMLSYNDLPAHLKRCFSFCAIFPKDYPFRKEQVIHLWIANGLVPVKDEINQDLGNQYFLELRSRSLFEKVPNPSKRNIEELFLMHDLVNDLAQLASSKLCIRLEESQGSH
# [2] = biological target: T2, I-2 CC-NB-ARC S233F (Solanum lycopersicum (tomato)) (UniProt Q9XET3); experiment: EMSA; conditions: 5 uM ADP, 10 mM ZnCl2 (so in the source); EMSA: 20 mM Tris-HCl pH 8.0, 60 mM NaCl, 2 mM EDTA, 1 mM DTT, 10% glycerol, 0.1 mg/ml BSA, 0.15 nM nucleic acid; recombinant protein; residues 1-519; label: 32P end label
# T2 sequence (looked up): T1 sequence (looked up) with R207K, S233F
# [3] = biological target: T3, I-2 CC-NB-ARC WT (I-2 1-519) (Solanum lycopersicum (tomato)) (UniProt Q9XET3); experiment: EMSA; conditions: EMSA: 20 mM Tris-HCl pH 8.0, 60 mM NaCl, 2 mM EDTA, 1 mM DTT, 10% glycerol, 0.1 mg/ml BSA, 0.15 nM nucleic acid, recombinant protein, residues 1-519, label: 32P end label
# T3 sequence (looked up): T1 sequence (looked up) with R207K
# [4] = biological target: T3, I-2 CC-NB-ARC WT (I-2 1-519) (Solanum lycopersicum (tomato)); experiment: steady-state and time-resolved FRET; conditions: 1.5 uM protein, DNA bending; recombinant protein; residues 1-519; label: fluorescein and TAMRA end labels
sequence,measurement,setting,value
TGGGTCAACGTGGGCAAAGATGTCCTAGCAATGTAATCGTCTATGACGTT (double strand) [SS1/SS2 dsDNA (50 bp)],binding result,[1]; 5 uM ADP,binds more weakly
same,binding result,"[1]; 5 uM beta,gamma-imido ATP",binds
same,binding signal (% of binding with 5 uM ATP),[2],61
same,binding signal (ratio to no nucleotide),"[3]; 5 uM ADP, 10 mM ZnCl2 (so in the source)",0.65
UGGGUCAACGUGGGCAAAGAUGUCCUAGCAAUGUAAUCGUCUAUGACGUU [ssRNA sense strand (50 nt)],Kd,"[3]; apparent Kd, text says reduced affinity",> 100 µM
"TGGGTCAACGTGGGCAAAGA (double strand) [SS1s/SS2s dsDNA (20 bp), FRET]",binding result,[4],binds
